Results reported in PubChem BioAssay AID2205 (University of Pittsburgh Molecular Library Screening Center, 2009).
Some of the results follow.

assay: tubulin staining increase by stabilizing compounds – imaging, high-content imaging, primary screen (AID 2205); settings: HeLa tubulin immunostaining HCS, 24 h, at 10 µM; % Hoechst-high responders: measured here: nuclear condensation Hoechst responders, stronger effect = higher value, share of cells brighter than vehicle mean+2SD; toxicity: measured here: cytotoxicity by cell density;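 on toxicity: 0% = mean cell density of plate MIN control wells and 100% = no cells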

| Structure (SMILES) | % Hoechst-high responders | toxicity |
| --- | --- | --- |
| N/C(=N\O)c1c(N)no[n+]1[O-] | 2.81% | 0.242% |
| O=C(OC1CN2CCC1CC2)C1c2ccccc2C=Cc2ccccc21 (stereo not given) | 2.38% | 11.9% |
| COc1ccc(C(=O)NCC2(N3CCOCC3)CCCCC2)cc1OC | 1.79% | 7.39% |
| c1ccc(CN2CCC(Nc3ccccc3)CC2)cc1 | 2.61% | 5.04% |
| N#Cc1ccc(C(=O)NCC2(N3CCCCC3)CCCCC2)cc1 | 1.18% | 5% |
| CCN1CCC(Nc2cccc(F)c2)CC1 | 2.61% | 7.38% |
| CN(C)c1ccc(C(=O)NCC2(N3CCCCC3)CCCCC2)cc1 | 2.49% | 3.49% |
| CCC(CO)(C(=O)OC1CN2CCC1CC2)c1ccccc1 (stereo not given) | 5.6% | 6.65% |
| COc1cc(OC)cc(C(=O)NCC2(N3CCOCC3)CCCCC2)c1 | 1.75% | 9.49% |
| CCOc1ncccc1C(=O)NCC1(N2CCOCC2)CCCCC1 | 2.71% | 10.4% |
| CC(C)(C)OC(=O)N1CCC(Nc2ccccc2)CC1 | 2.5% | 4.64% |
| O=C(NCC1(N2CCOCC2)CCCCC1)c1cc2ccccc2o1 | 3.53% | 5.77% |
| CCOC(=O)N1CCC(Nc2ccc(OC)cc2)CC1 | 1.56% | 14.8% |
| O=C(OC1CN2CCC1CC2)C1c2ccccc2Oc2ccccc21 (stereo not given) | 1.05% | 5.18% |
| COc1ccc(C(=O)NCC2(N3CCCCC3)CCCCC2)c(OC)c1OC | 1.09% | 4.73% |
| COc1ccc(NC2CCN(CCc3ccccc3)CC2)c(OC)c1 | 1.46% | 6.72% |
| COc1ccc(NC2CCN(C(=O)OC(C)(C)C)CC2)cc1 | 2.8% | 7.5% |
| CN1CCN(CCOC(=O)C(O)(c2ccccc2)c2ccccc2)CC1 | 2.04% | 13.5% |
| O=C(NCC1(N2CCOCC2)CCCCC1)c1cc(=O)[nH]c2ccccc12 | 2.03% | 6.08% |
| O=C(NCC1(N2CCCCC2)CCCCC1)c1cccc([N+](=O)[O-])c1 | 1.49% | 3.18% |
| N#CC1(Nc2ccccc2)CCN(CCc2ccccc2)CC1 | 1.41% | 9.36% |
| CN1CCC(Nc2cccc(F)c2)CC1 | 1.4% | 6% |
| CN(C)c1cccc(C(=O)NCC2(N3CCCCC3)CCCCC2)c1 | 1.04% | 21.5% |
| COc1ccc(CN(CCCl)CCCl)cc1Cl | 1.85% | 7.03% |
| CC(C)c1ccc(NC2CCN(C(=O)OC(C)(C)C)CC2)cc1 | 1.99% | 4.55% |
